Reference: PubChem BioAssay AID2061305 (National Center for Advancing Translational Sciences (NCATS), 2025)
This list was built around the results that the source calls inconclusive (neither active nor inactive); the mix of calls is not that of the screen. Calls come from the whole dose curve; as a rule, active = well fitted inhibition curve with a large enough effect; inconclusive = small, poorly fitted or top-dose-only effect; inactive = flat fitted curve, though single readings scatter. Where the call is inconclusive, the potency comes from a doubtful curve fit.

Test: Identification of antibody-drug conjugate (ADC) payloads which are substrates of ATP-binding cassette drug efflux transporters: ABCB1-HeLa-KB-3-1 cell line
Settings: KB-3-1 (HeLa derivative) viability, CellTiter-Glo, 48 h
Source text: Antibody-drug conjugates (ADCs) feature an antibody recognizing a specific protein joined to a potent toxic payload. Numerous antibody-drug conjugates have received FDA approval; however, clinical resistance arises. Resistance mechanisms include decreased expression or mutation of the antibody target, impaired payload release, or increased expression of ATP-binding cassette (ABC) efflux transporters associated with multidrug resistance. We therefore sought to characterize the interaction of ABC multidrug transporters with ADC payloads. We performed a high-throughput screen with 27 common ADC payloads using cells lines expressing ABC transporters P-glycoprotein (P-gp, encoded by ABCB1) or ABCG2 (encoded by ABCG2). Confirmatory assays were also performed using cells transfected to express P-gp, ABCG2, or MRP1 (encoded by ABCC1). Several commonly used ADC payloads were substrates of P-gp, including calicheamicin gamma1, monomethyl auristatin E, DM1, and DM4. All the pyrrolobenzodiazepines tested - SJG136, SGD-1882, SG2057, and SG3199 - were substrates of P-gp, ABCG2, and MRP1. […] These findings highlight the risk of transporter-mediated resistance with certain ADC payloads and underscore the importance of selecting payloads that evade ABC transporter recognition in future ADC development. […]

| Compound | Potency |
| --- | --- |
| COc1cc2cc(c1Cl)N(C)C(=O)C[C@H](OC(=O)[C@H](C)N(C)C(=O)CCS)[C@]1(C)OC1[C@H](C)C1C[C@@](O)(NC(=O)O1)[C@H](OC)/C=C/C=C(\C)C2 (some centres not stated) | inconclusive: 2.1 nM [falling, full curve] |
| COc1cc2cc(c1Cl)N(C)C(=O)C[C@H](OC(=O)C(C)C)[C@]1(C)O[C@H]1[C@H](C)[C@@H]1C[C@@](O)(NC(=O)O1)[C@H](OC)C=CC=C(C)C2 | inconclusive: 0.1 nM [full curve] |
